This passage reports binding results from article PMC4200855.

Chains of the proteins cited; added tags and fusions are not shown.
UniProt P08047: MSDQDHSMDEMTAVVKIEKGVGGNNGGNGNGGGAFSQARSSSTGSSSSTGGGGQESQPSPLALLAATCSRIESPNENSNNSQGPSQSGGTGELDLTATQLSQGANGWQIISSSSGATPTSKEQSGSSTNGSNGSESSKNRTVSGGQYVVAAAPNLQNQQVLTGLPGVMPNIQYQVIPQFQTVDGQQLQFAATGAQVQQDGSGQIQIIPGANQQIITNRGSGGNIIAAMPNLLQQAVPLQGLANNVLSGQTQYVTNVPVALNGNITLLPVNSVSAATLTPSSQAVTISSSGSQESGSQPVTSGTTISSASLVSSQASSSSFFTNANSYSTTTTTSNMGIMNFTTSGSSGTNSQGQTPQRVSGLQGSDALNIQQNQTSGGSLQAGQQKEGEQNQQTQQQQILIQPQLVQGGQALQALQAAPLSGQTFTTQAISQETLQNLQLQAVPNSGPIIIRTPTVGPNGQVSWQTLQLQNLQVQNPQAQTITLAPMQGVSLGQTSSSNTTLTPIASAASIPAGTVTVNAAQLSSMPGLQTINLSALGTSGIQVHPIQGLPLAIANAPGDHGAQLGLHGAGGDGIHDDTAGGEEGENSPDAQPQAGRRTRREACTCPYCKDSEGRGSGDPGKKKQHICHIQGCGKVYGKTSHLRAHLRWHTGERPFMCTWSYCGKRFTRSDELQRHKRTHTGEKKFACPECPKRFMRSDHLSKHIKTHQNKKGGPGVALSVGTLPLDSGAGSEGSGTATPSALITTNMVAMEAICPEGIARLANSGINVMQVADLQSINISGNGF
UniProt Q99814: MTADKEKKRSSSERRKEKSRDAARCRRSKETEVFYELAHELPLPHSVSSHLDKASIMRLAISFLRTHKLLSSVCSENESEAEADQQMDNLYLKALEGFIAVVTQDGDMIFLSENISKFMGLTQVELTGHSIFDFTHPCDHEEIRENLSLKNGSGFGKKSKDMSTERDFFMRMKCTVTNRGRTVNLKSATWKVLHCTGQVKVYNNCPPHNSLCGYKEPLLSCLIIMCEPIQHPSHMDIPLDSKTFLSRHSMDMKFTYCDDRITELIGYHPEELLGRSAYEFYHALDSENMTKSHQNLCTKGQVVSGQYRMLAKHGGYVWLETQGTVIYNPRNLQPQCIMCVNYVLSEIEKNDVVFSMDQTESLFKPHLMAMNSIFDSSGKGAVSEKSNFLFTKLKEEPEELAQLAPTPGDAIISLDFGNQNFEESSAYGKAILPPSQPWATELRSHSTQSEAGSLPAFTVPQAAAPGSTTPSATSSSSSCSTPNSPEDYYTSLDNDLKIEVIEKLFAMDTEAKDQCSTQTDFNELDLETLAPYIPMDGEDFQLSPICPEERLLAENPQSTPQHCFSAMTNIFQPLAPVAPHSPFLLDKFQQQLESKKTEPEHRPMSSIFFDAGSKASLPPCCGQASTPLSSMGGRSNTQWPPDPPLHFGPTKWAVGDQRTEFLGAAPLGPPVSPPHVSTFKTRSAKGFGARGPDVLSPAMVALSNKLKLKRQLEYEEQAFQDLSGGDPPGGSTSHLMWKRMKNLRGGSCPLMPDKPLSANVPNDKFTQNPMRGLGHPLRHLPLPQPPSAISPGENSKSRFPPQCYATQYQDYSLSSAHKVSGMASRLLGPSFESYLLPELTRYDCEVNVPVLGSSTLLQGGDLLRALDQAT

No constants are given. Whether binding was seen depends on the method and setting. In cells and extracts the contact can be indirect. Some binding calls cover weakened binding; strength is not graded here.

This assay deals with specificity protein-1 (SP-1) (UniProt P08047). Kind of assay: co-IP; lysates of transfected cells in HEPES buffer (20 mM HEPES pH 7.2, 50 mM NaCl, 0.5% Triton X-100, 1 mM NaF, 1 mM DTT) with protease inhibitors; mouse anti-Flag 4 h at 4 °C, protein A/G-agarose overnight at 4 °C; three washes; immunoblot.

For the substance “endothelial pas domain protein-1 (EPAS-1) (from UniProt Q99814 1-870)”, the binding result is “binds”.
